Assay results reported in patent US20230203176A1.
No constants are given. Whether binding was seen depends on the method and setting. Some binding calls cover weakened binding; strength is not graded here.

Key:
[1] = biological target: T1, pig CD40 (pig) (UniProt Q8SQ34); assay: flow cytometry on pig PBMCs (FIG. 4 and FIG. 5)
T1 sequence (looked up): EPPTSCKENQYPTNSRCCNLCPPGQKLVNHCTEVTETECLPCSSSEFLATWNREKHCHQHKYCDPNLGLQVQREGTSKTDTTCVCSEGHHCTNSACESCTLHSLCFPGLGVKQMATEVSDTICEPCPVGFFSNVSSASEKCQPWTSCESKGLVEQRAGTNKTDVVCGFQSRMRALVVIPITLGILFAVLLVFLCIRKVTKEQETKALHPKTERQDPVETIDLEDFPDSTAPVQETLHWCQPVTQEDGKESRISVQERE

[2] = biological target: T1, pig CD40 (pig); assay: binding to cells (FIG. 7), compared with 2C10
[3] = biological target: T1, pig CD40 (pig); assay: flow cytometry on pig PBMCs from three pigs (FIG. 4)
[4] = biological target: T1, pig CD40 (pig); assay: flow cytometry, CFZ533 and CD21 double stain of pig PBMCs (FIG. 1)
[5] = biological target: T1, pig CD40 (pig); assay: flow cytometry on pig PBMCs (summary of FIGS. 1-6)
[6] = biological target: T1, pig CD40 (pig); assay: flow cytometry on pig PBMCs from three pigs (FIG. 5)
[7] = biological target: T1, pig CD40 (pig); assay: flow cytometry on pig PBMCs
[8] = biological target: T1, pig CD40 (pig); assay: flow cytometry with AF488- or AF647-labelled CFZ533 on pig PBMCs

Measured: binding

B1: CFZ533 (antibody, human IgG1, kappa, N297A, V domains shown)
VH: QVQLVESGGGVVQPGRSLRLSCAASGFTFSSYGMHWVRQAPGKGLEWVAVISYEESNRYHADSVKGRFTISRDNSKITLYLQMNSLRTEDTAVYYCARDGGIAAPGPDYWGQGTLVTVSS
VL: DIVMTQSPLSLTVTPGEPASISCRSSQSLLYSNGYNYLDWYLQKPGQSPQVLISLGSNRASGVPDRFSGSGSGTDFTLKISRVEAEDVGVYYCMQARQTPFTFGPGTKVDIRR
binds: all assays above
